In this assay the target is T1, wild type Sse1 (yeast Hsp110) (yeast), P32589.
T1 chain: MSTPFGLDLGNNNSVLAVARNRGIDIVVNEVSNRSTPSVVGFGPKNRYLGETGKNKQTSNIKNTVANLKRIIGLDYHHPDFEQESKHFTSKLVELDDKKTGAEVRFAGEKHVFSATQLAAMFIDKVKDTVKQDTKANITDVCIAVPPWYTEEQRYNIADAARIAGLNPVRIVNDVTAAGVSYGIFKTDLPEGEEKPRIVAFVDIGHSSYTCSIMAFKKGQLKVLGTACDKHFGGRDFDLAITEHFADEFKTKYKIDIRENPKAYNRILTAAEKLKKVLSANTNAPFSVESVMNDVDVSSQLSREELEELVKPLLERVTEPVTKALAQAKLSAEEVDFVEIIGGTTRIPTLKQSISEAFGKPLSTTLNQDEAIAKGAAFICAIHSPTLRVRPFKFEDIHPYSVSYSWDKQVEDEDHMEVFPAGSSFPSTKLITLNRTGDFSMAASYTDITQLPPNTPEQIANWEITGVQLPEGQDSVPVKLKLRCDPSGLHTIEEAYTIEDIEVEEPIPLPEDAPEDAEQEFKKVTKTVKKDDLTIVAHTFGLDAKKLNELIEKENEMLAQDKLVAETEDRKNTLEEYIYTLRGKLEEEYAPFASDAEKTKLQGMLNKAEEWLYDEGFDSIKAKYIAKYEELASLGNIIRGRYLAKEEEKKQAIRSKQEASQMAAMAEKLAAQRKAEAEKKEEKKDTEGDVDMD
Nature of the assay: SAXS. Conditions: remark: other sources report otherwise.

Results are given in words; binding and its absence hold for the method and conditions named.

B1: wild type Sse1 (yeast Hsp110), P32589 1-693 (protein)
chain: T1 chain
Turning to B1, the binding result was “no binding”.

The record behind these values is article doi:10.1101/220798.
